Reference: PMC9963953, “Structures of MPND Reveal the Molecular Recognition of Nucleosomes”

Tests used:
[1] = biological target: T1, MPND (fragment used in EMSA/MST not given) (Mus musculus) (UniProt Q3TV65); experiment: EMSA, MST; conditions: EMSA: 20 mM HEPES pH 7.2, 100 mM NaCl, 2 mM DTT, 0.1% NP-40, 20 uM protein, 5 uM DNA, on ice, recombinant protein, protein details: His6 or GST tag, TEV-removed, label: FAM
T1 sequence (looked up, limits assumed): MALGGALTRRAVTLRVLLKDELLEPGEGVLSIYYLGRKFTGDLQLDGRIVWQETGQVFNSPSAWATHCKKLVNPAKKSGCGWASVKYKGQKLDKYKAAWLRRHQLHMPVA

[2] = biological target: T1, MPND (fragment used in EMSA/MST not given) (Mus musculus); experiment: MST; conditions: MST: 20 mM HEPES pH 7.2, 100 mM NaCl, 0.1% NP-40, 22 C, recombinant protein, protein details: His6 or GST tag, TEV-removed, label: FAM
[3] = biological target: T1, MPND (fragment used in EMSA/MST not given) (Mus musculus); experiment: EMSA; conditions: EMSA: 20 mM HEPES pH 7.2, 100 mM NaCl, 2 mM DTT, 0.1% NP-40, 20 uM protein, 5 uM DNA, on ice, recombinant protein, protein details: His6 or GST tag …, label: FAM
[4] = biological target: T1, MPND (fragment used in EMSA/MST not given) (Mus musculus); experiment: competition with a labelled probe; conditions: unlabeled dsDNA competes with FAM-dsDNA1; EMSA: 20 mM HEPES pH 7.2, 100 mM NaCl, 2 mM DTT, 0.1% NP-40, 20 uM protein, 5 uM DNA, on ice; recombinant protein; protein details: His6 or GST tag, TEV-removed; label: FAM
[5] = affinity falls with number of mismatches
[6] = affinity falls with number of mismatched bases

“GATGCAAGCATCAGCAACAGAAGAGGATCTCAGGTGCAGCGC (double strand) [dsDNA 42 bp]”: binds ([1]; no obvious effect of length).

TCAGCAACAGAAGAGGATCTC [ssDNA 21 nt]: no binding ([2]; single-stranded DNA); no binding ([3]; single-stranded DNA).

“AGCAACAGAAGAGGATCT (double strand) [dsDNA 18 bp]”: binds ([1]; no obvious effect of length).

“TCAGCAACAGAAGAGGATCTC / GAGATCCTCTGAGGTTGCTGA [bubble 3 (3 mismatches)]”: binds more weakly [1, 5].

“TCAGCAACAGAAGAGGATCTC / GAGATCCGAGGAGTGGGCTGA [bubble 9 (9 mismatches)]”: binds more weakly [1, 5].

In the case of “TCAGCAACAGAAGAGGATCTC (double strand) [dsDNA 21 bp]”, the binding result [4] is reported as “binds”, the Kd [2] is reported as 1500 nM and the binding result [3] is reported as “binds”.

“AGCAACAGAAGAGGATCT (double strand) [6mA dsDNA 18 bp]”: binds ([1]; 6mA did not affect binding, N6-methyladenine, position not readable in the material).

“TCAGCAACAGAAGAGGATCTC / GAGATCCTCTGTTGCTGA [bulge 3]”: binds more weakly [1, 6].

“TCAGCAACAGAAGAGGATCTC / GAGATCCGTTGCTGA [bulge 6]”: binds more weakly [1, 6].

“TCAGCAACAGAAGAGGATCTC / GAGATCCGAGGAGGTTGCTGA [bubble 6 (6 mismatches)]”: binds more weakly [1, 5].

“GCAACAGAAGAGGAT (double strand) [dsDNA 15 bp]”: binds ([1]; no obvious effect of length).

The exact form of at least one protein or probe is not confirmed. For some assays here: A negative result means that nothing was seen under these conditions. Protein sequences can lack the tags named with them. For some assays here: Weaker means in comparison with the reference protein, sequence or condition of that experiment. For some assays here: At least one verdict was read from the data and is not stated in words by the source.
